According to patent publication US6696546:
These are yes or no findings as the source states them, for the method shown. For part of these data: In cells and extracts the contact can be indirect. Some entries that bind do so weakly or less than the wild type. For part of these data: Tags and fused reporters may be left off the sequences shown.

Amino acid sequences for entries named in this document (tags omitted). A change or cut given only in a name is not applied to a line headed by its entry.
UniProt P14635: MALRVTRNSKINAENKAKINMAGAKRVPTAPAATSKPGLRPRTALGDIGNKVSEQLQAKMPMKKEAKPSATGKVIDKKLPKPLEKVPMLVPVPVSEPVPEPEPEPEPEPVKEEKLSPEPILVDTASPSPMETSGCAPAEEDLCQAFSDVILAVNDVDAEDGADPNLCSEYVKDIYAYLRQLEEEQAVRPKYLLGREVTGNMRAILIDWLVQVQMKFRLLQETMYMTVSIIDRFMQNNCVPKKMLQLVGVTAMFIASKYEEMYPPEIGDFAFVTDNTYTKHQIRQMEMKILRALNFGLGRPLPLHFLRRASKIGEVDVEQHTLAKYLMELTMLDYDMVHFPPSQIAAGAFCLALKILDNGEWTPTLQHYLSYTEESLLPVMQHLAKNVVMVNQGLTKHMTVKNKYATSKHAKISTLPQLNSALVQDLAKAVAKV
UniProt P06493: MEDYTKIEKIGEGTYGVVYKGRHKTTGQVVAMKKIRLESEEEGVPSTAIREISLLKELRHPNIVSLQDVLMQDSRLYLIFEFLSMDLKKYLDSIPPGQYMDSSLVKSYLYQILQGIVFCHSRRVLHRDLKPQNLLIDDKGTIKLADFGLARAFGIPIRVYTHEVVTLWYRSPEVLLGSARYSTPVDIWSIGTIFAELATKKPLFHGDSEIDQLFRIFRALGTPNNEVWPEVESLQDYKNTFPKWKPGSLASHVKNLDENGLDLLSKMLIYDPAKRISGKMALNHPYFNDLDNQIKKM

B1: baculovirus-produced and purified histidine-tagged PAP II (enzyme, UniProt P25500 1-739, looked up, not shown: small tags and cut ends)
chain: MPFPVTTQGSQQTQPPQKHYGITSPISLAAPKETDCLLTQKLVETLKPFGVFEEEEELQRRILILGKLNNLVKEWIREISESKNLPQSVIENVGGKIFTFGSYRLGVHTKGADIDALCVAPRHVDRSDFFTSFYDKLKLQEEVKDLRAVEEAFVPVIKLCFDGIEIDILFARLALQTIPEDLDLRDDSLLKNLDIRCIRSLNGCRVTDEILHLVPNIDNFRLTLRAIKLWAKRHNIYSNILGFLGGVSWAMLVARTCQLYPNAIASTLVHKFFLVFSKWEWPNPVLLKQPEECNLNLPVWDPRVNPSDRYHLMPIITPAYPQQNSTYNVSVSTRMVMVEEFKQGLAITDEILLSKAEWSKLFEAPNFFQKYKHYIVLLASAPTEKQRLEWVGLVESKIRILVGSLEKNEFITLAHVNPQSFPAPKENPDKEEFRTMWVIGLVFKKTENSENLSVDLTYDIQSFTDTVYRQAINSKMFEVDMKIAAMHVKRKQLHQLLPSHVLQKKKKHSTEGVKLTPLNDSSLDLSMDSDNSMSVPSPTSAMKTSPLNSSGSSQGRNSPAPAVTAASVTNIQATEVSLPQINSSESSGGTSSESIPQTATQPAISSPPKPTVSRVVSSTRLVNPPPRPSGNAAAKIPNPIVGVKRTSSPHKEESPKKTKTEEDETSEDANCLALSGHDKTETKEQLDTETSTTQSETIQTATSLLASQKTSSTDLSDIPALPANPIPVIKNSIKLRLNR
B2: C-terminal truncated PAP (1-434) (enzyme, bovine, UniProt P25500 1-434, looked up)
chain: MPFPVTTQGSQQTQPPQKHYGITSPISLAAPKETDCLLTQKLVETLKPFGVFEEEEELQRRILILGKLNNLVKEWIREISESKNLPQSVIENVGGKIFTFGSYRLGVHTKGADIDALCVAPRHVDRSDFFTSFYDKLKLQEEVKDLRAVEEAFVPVIKLCFDGIEIDILFARLALQTIPEDLDLRDDSLLKNLDIRCIRSLNGCRVTDEILHLVPNIDNFRLTLRAIKLWAKRHNIYSNILGFLGGVSWAMLVARTCQLYPNAIASTLVHKFFLVFSKWEWPNPVLLKQPEECNLNLPVWDPRVNPSDRYHLMPIITPAYPQQNSTYNVSVSTRMVMVEEFKQGLAITDEILLSKAEWSKLFEAPNFFQKYKHYIVLLASAPTEKQRLEWVGLVESKIRILVGSLEKNEFITLAHVNPQSFPAPKENPDKEEFR
modifications: 35S label (in vitro translated)

How the values were obtained:
[1] = molecular target: T1, human cyclin B1/flu epitope-tagged p34cdc2 (human) (UniProt P14635+P06493); test: modified far-western: PAP II (1 µg) on nitrocellulose, renatured, incubated with cyclin B1/p34cdc2 (100 ng), detected with anti-cyclin B1 antibody
[2] = molecular target: T1, human cyclin B1/flu epitope-tagged p34cdc2 (human); test: modified far-western
[3] = molecular target: GST-Cyclin B1 fusion protein (UniProt P14635); test: GST-cyclin B1 pull-down of in vitro translated 35S PAPs, autoradiography

Row | Binder | binding [1] | binding [2] | binding [3]
1 | B1 | binds | binds | 
2 | B2 |  |  | binds
